Assay results taken from publication PMC3338420.
No constants are given. Whether binding was seen depends on the method and setting. Binding can be weak; no strength is given.

By UniProt entry, the sequences of proteins in these tests, tags left out. Where a name states a change or a piece, a line headed by the entry shows the natural chain unless it says otherwise. Chains listed by the source or under a name are the forms on record and can include a tag or linker. Residues count along the entry.
UniProt Q6PAL8: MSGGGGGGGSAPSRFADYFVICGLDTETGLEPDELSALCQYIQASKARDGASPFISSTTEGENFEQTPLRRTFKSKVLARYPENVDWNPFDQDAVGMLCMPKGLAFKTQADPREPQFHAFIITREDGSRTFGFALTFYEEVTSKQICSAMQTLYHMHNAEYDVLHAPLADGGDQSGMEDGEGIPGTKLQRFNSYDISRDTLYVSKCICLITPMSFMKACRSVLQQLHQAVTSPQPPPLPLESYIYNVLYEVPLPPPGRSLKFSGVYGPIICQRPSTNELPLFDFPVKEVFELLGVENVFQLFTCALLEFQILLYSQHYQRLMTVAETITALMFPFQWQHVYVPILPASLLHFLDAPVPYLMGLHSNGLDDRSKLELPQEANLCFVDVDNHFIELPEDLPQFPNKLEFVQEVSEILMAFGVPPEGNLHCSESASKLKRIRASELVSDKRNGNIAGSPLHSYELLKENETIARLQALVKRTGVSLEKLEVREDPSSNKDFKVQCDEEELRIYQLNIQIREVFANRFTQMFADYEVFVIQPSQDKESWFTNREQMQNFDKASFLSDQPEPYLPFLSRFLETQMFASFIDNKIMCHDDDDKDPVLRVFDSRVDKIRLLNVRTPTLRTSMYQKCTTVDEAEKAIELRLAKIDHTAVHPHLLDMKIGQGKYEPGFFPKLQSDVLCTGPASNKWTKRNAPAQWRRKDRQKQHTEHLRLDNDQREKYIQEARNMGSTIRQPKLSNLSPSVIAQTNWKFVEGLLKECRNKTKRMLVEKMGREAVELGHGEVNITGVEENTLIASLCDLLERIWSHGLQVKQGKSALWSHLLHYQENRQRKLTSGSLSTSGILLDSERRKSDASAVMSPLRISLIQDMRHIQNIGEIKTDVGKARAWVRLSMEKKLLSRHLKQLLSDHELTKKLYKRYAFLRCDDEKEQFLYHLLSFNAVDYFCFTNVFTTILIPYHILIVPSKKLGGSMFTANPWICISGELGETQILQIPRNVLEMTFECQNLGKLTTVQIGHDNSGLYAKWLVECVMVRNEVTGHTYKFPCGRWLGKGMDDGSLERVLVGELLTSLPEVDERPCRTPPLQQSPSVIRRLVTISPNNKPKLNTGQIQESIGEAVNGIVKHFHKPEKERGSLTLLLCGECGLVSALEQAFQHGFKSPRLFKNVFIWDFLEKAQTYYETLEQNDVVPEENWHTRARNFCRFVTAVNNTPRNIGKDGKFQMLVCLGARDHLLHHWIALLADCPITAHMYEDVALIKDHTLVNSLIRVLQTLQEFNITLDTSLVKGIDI
Rab6a (residues 8–195, Q72L) (P20340, form named): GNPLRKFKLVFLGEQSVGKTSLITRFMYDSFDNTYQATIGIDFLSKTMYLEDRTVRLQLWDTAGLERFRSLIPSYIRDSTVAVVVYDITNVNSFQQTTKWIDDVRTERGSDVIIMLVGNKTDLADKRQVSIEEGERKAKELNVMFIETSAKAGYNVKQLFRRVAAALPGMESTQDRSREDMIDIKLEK

Columns and labels:
[1] = target: RPdel (RUN1-PLAT of DENND5A, loop 813–835 deleted) (mouse) (UniProt Q6PAL8); assay: SEC; Rab6a co-expressed with the DENND5A fragment in E. coli; complex purified and eluted together in gel filtration, SDS-PAGE of the peak
[2] = target: RPRdel (RUN1-PLAT-RUN2 of DENND5A, loop 813–835 deleted) (mouse) (UniProt Q6PAL8); assay: as above

binding [1]: binds | binding [2]: binds
Substance: Rab6a (residues 8–195, Q72L) (from UniProt P20340 8-195) (domain or fragment)
